{"source": "paper PMC9584938", "binders": {"B1": {"name": "FLOT2 (protein, UniProt Q14254 1-428)", "chain": "MGNCHTVGPNEALVVSGGCCGSDYKQYVFGGWAWAWWCISDTQRISLEIMTLQPRCEDVETAEGVALTVTGVAQVKIMTEKELLAVACEQFLGKNVQDIKNVVLQTLEGHLRSILGTLTVEQIYQDRDQFAKLVREVAAPDVGRMGIEILSFTIKDVYDKVDYLSSLGKTQTAVVQRDADIGVAEAERDAGIREAECKKEMLDVKFMADTKIADSKRAFELQKSAFSEEVNIKTAEAQLAYELQGAREQQKIRQEEIEIEVVQRKKQIAVEAQEILRTDKELIATVRRPAEAEAHRIQQIAEGEKVKQVLLAQAEAEKIRKIGEAEAAVIEAMGKAEAERMKLKAEAYQKYGDAAKMALVLEALPQIAAKIAAPLTKVDEIVVLSGDNSKVTSEVNRLLAELPASVHALTGVDLSKIPLIKKATGVQV"}, "B2": {"name": "full-length FLAG-FLOT2 (protein, UniProt Q14254 1-428)", "chain": "B1 chain"}, "B3": {"name": "PPT1, lysosomal hydrolase of the palmitoyl protein thioesterase family, P50897 28-306 (enzyme)", "chain": "DPPAPLPLVIWHGMGDSCCNPLSMGAIKKMVEKKIPGIYVLSLEIGKTLMEDVENSFFLNVNSQVTTVCQALAKDPKLQQGYNAMGFSQGGQFLRAVAQRCPSPPMINLISVGGQHQGVFGLPRCPGESSHICDFIRKTLNAGAYSKVVQERLVQAEYWHDPIKEDVYRNHSIFLADINQERGINESYKKNLMALKKFVMVKFLNDSIVDPVDSEWFGFYRSGQAKETIPLQETSLYTQDRLGLKEMDNAGQLVFLATEGDHLQLSEEWFYAHIIPFLG"}}, "key": {"[1]": {"target": "FLOT1 (human (endogenous in HEK293)) (UniProt O75955)", "test": "co-IP; HEK293 lysate (RIPA or 1% NP-40 lysis buffer), 1.6 mg protein with 3 µg antibody overnight at 4 °C, Protein A beads, western blot; control: empty beads"}, "[2]": {"target": "FLOT1 (human (endogenous in HEK293)) (UniProt O75955)", "test": "cross-linking; XL-LC-MS/MS: lysosome-enriched fractions (SPIONs) of HEK293 cells, intact and disrupted, 1 mg/mL protein in isolation buffer, 0.25 mM DSSO, 30 min at room temperature; XlinkX, FDR 5 %"}, "full-length FLAG-FLOT1 [3]": {"target": "full-length FLAG-FLOT1 (UniProt O75955)", "test": "cross-linking; FLAG-IP eluates of co-transfected WT or Δ100 FLOT1/FLOT2, with and without DSSO cross-linking, SDS-PAGE and western blot"}, "full-length FLAG-FLOT1 [4]": {"target": "full-length FLAG-FLOT1 (UniProt O75955)", "test": "native gel or EMSA; BN-PAGE (4–12% gradient, digitonin solubilisation, 4 °C) of FLAG-IP eluates of FLOT1-FLAG/FLOT2-FLAG with and without DSSO cross-linking, western blot"}, "full-length FLAG-FLOT1 [5]": {"target": "full-length FLAG-FLOT1 (UniProt O75955)", "test": "cross-linking; XL-LC-MS/MS: early endosome-enriched fractions (SPIONs pulse-chase) of HEK293 cells overexpressing FLOT1-FLAG and FLOT2-FLAG, intact state, 0.25 mM DSSO, 30 min at room temperature"}, "[6]": {"target": "T1, PPT1, lysosomal hydrolase of the palmitoyl protein thioesterase family (human (endogenous in HEK293)), P50897", "T1 chain": "B3 chain", "test": "cross-linking; XL-LC-MS/MS: lysosome-enriched fractions (SPIONs) of HEK293 cells, intact and disrupted, 1 mg/mL protein in isolation buffer, 0.25 mM DSSO, 30 min at room temperature; XlinkX, FDR 5 %", "details": "remark: other sources report otherwise"}}, "note": "These are yes or no findings as the source states them, for the method shown. For part of these data: Binding seen in cells or lysates may run through a third protein. Some entries that bind do so weakly or less than the wild type. For part of these data: Tags and fused reporters may be left off the sequences shown.", "data": [{"binder": "B1", "values": [{"measurement": "binding", "setting": "[1]", "result": "binds"}, {"measurement": "binding", "setting": "[2]", "result": "binds"}]}, {"binder": "B2", "values": [{"measurement": "binding", "setting": "full-length FLAG-FLOT1 [3]", "result": "binds"}, {"measurement": "binding", "setting": "full-length FLAG-FLOT1 [4]", "result": "binds"}, {"measurement": "binding", "setting": "full-length FLAG-FLOT1 [5]", "result": "binds"}]}, {"binder": "B3", "values": [{"measurement": "binding", "setting": "[6]", "result": "binds"}]}]}
